In publication doi:10.1101/2025.07.30.663779:
No constants are given. Whether binding was seen depends on the method and setting. Some binding calls cover weakened binding; strength is not graded here. Where a sequence is shown, tags or fusion partners need not be part of it.

Chains of the proteins cited; added tags and fusions are not shown. Residues count along the entry.
UniProt P27548, residues 112-260: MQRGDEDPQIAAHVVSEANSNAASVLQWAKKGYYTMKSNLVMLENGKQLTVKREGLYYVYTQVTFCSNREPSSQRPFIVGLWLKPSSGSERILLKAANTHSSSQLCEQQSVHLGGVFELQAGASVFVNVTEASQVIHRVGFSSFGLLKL

Target: T1, mouse CD40-His protein (mouse) (UniProt P27512)
T1 sequence: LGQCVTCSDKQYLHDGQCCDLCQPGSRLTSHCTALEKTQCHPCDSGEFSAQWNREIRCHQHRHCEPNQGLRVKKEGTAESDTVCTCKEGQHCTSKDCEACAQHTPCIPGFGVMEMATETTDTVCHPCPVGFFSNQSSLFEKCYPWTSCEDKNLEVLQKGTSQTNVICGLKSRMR
Experiment: ELISA

How did the binding turn out when “mouse CD40L-hFc protein (human Fc-conjugated) (from UniProt P27548 112-260) (Fc fusion)” was run?
The binding was “binds”.
